From PMC5446775, “Interactions of 172 plant extracts with human organic anion transporter 1 (SLC22A6) and 3 (SLC22A8): a study on herb-drug interactions” (PeerJ, 2017)
Values joined by “and” are separate entries in the source; they are usually repeats but may differ in a detail not shown here. Equal entries are not always repeated.

Experiment: Pharmacokinetics of furosemide in rats with and without Juncus effusus extract
Type: in vivo
Settings: for plasma concentration of FS, Figure 4 raw data (single rats): FS alone

NS(=O)(=O)c1cc(C(=O)O)c(NCc2ccco2)cc1Cl [FS, furosemide]
plasma concentration of FS, Figure 4 raw data (single rats) (2 min): 85.36 (2×) and 91.84 and 121.6528 and 181.7607
plasma concentration of FS, Figure 4 raw data (single rats) (5 min): 69.52 (2×) and 70.85 and 112.3429 and 66.57
plasma concentration of FS, Figure 4 raw data (single rats) (10 min): 50.56 (2×) and 61.96 and 54
plasma concentration of FS, Figure 4 raw data (single rats) (15 min): 53.5826 (2×) and 47.05
plasma concentration of FS, Figure 4 raw data (single rats) (30 min): 40 (2×) and 41.78 and 72.78 and 37.85
plasma concentration of FS, Figure 4 raw data (single rats) (60 min): 27.72 (2×) and 29.37 and 50.94 and 37.19
plasma concentration of FS, Figure 4 raw data (single rats) (90 min): 22.57 (2×) and 26.18 and 43.34 and 30.34
plasma concentration of FS, Figure 4 raw data (single rats) (120 min): 20.06 (2×) and 23.52 and 24.43 and 35.69
AUC(0-inf) (male, Sprague-Dawley, rat, plasma, iv, FS 10 mg/kg i.v. alone, rats, read-out: AUC0–inf_obs of FS (converted)): 167 µg·h/mL
